Data reported in US20230295330A1 (Seagen, published 2023).
Results are given in words; binding and its absence hold for the method and conditions named. Some entries that bind do so weakly or less than the wild type.

T1: human CD228 (R&D Systems Custom02; Lot DCWR021505A) (human) (UniProt P08582)
T1 sequence (looked up): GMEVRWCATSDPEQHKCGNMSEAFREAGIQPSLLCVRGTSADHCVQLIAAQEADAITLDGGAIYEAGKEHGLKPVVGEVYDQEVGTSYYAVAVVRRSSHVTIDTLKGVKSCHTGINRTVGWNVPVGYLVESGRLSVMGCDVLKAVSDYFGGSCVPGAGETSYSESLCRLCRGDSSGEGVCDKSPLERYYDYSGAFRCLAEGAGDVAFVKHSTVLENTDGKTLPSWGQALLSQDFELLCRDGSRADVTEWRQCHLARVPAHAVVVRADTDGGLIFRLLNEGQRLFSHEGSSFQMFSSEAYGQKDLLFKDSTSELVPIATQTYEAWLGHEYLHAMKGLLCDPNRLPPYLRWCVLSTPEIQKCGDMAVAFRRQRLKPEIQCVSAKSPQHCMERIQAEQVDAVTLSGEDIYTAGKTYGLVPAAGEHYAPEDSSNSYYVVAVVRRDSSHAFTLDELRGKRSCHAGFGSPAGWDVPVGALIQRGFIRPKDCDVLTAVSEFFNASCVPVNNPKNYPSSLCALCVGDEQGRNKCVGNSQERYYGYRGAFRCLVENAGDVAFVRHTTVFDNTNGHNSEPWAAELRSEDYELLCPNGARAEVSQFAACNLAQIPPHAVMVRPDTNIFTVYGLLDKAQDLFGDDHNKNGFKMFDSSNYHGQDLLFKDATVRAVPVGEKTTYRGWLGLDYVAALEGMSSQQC


Tests used:
[1] = target: T1, human CD228 (R&D Systems Custom02; Lot DCWR021505A) (human); assay: BLI (Octet Red 384), antibody as ligand on the sensor, CD228 antigen as analyte
[2] = target: T1, human CD228 (R&D Systems Custom02; Lot DCWR021505A) (human); assay: ELISA, plate-coated human CD228, antibody titrated in citrate-phosphate buffer at pH 4.55, 5.60, 6.30 and 7.40, anti-human IgG Fc-HRP, OD 450 nm
[3] = target: T1, human CD228 (R&D Systems Custom02; Lot DCWR021505A) (human); assay: ELISA, coated human CD228, pH 4.55 to 7.4
[4] = target: T1, human CD228 (R&D Systems Custom02; Lot DCWR021505A) (human); assay: BLI (Octet Red 384), antibody as ligand, antigen as analyte

Binder	binding [1]	binding [2]	binding [3]	binding [4]
hL49 (antibody, V domains shown, Humanized antibody; Only variable domains are tied to it; also called hL49 HALC; hL49 WT) VH: QVQLQESGPGLVKPSETLSLTCTVSGDSITSGYWNWIRQPPGKGLEYIGYISDSGITYYNPSLKSRVTISRDTSKNQYSLKLSSVTAADTAVYYCARRTLATYYAMDYWGQGTLVTVSS VL: DFVMTQSPLSLPVTLGQPASISCRASQSLVHSDGNTYLHWYQQRPGQSPRLLIYRVSNRFSGVPDRFSGSGSGTDFTLKISRVEAEDVGVYYCSQSTHVPPTFGQGTKLEIK	binds	binds	–	–
hL49_34_Ala (antibody, V domains shown, hL49 variant with the light chain CDR-L1 histidine 34 changed to alanine; also called hL49_H34A) VH: QVQLQESGPGLVKPSETLSLTCTVSGDSITSGYWNWIRQPPGKGLEYIGYISDSGITYYNPSLKSRVTISRDTSKNQYSLKLSSVTAADTAVYYCARRTLATYYAMDYWGQGTLVTVSS VL: DFVMTQSPLSLPVTLGQPASISCRASQSLVHSDGNTYLAWYQQRPGQSPRLLIYRVSNRFSGVPDRFSGSGSGTDFTLKISRVEAEDVGVYYCSQSTHVPPTFGQGTKLEIK	binds	binds	binds	binds
hL49_34_Tyr (antibody, V domains shown, hL49 variant with the light chain CDR-L1 histidine 34 changed to tyrosine; also called hL49_H34Y; hL49_Tyr) VH: QVQLQESGPGLVKPSETLSLTCTVSGDSITSGYWNWIRQPPGKGLEYIGYISDSGITYYNPSLKSRVTISRDTSKNQYSLKLSSVTAADTAVYYCARRTLATYYAMDYWGQGTLVTVSS VL: DFVMTQSPLSLPVTLGQPASISCRASQSLVHSDGNTYLYWYQQRPGQSPRLLIYRVSNRFSGVPDRFSGSGSGTDFTLKISRVEAEDVGVYYCSQSTHVPPTFGQGTKLEIK	binds	–	–	binds
